The supplement of paper PMC6445147
This is a noisy data set.

B1: human tRNA-Pro; a variant is named by its letters at N, in order (parent)
chain: GGCTCGTTGGTCTAGNGGTATGATTCTCGCTTAGGGTGCGAGAGGTCCCGGGTTCNNATCCCGGACGAGCCC

Key:
[1] = variants of: B1; assay: tRNA Pol-III promoter activity, log2 (circRNA frequency / plasmid DNA frequency) (log2 ratio); higher = stronger promoter activity; conditions: HEK293T; construct: no Pol-II promoter ((-)CMV library)
[2] = variants of: B1; assay: tRNA 3' processing efficiency (processed reads / all reads, maximum-likelihood estimate) (fraction); higher = more efficient 3' processing; conditions: HEK293T; construct: no Pol-II promoter ((-)CMV library)

Row | Variant | tRNA Pol-III promoter activity (log2) [1] | tRNA 3' processing efficiency [2]
1 | GGCTCGTTGGTCTCGGGTTATGATTCTCGCTTAGGGTGCGAGAGGTCCCGGGTTTAAATCCCGGACGAGCCC [GAA A14C G18T C55T] | 3.18 | 0.22
2 | GGCTCGTTGGTCTTGGGGTATGATTCTCGCTTAGGGTGCGAGAGGTCCCGGGTTCATATCCCGGACGAGCCC [GAT A14T] | 3.6 | 0.36
3 | GGCTCGTTGGTCTTGGGGGATGATTCTCGCTTAGGGTGCGAGAGGTCCCGGGTTCAAACCCCGGACGAGCCC [GAA A14T T19G T59C] | 8.68 | 0.56
4 | GGCTCGTTGGTCTCGGGGTATGATTCTCGCTTAGGGTGCGAGAGGTCCCGGGATCAAAACCCGGACGAGCCC [GAA A14C T53A T59A] | 2.94 | 0.25
5 | GGCTCGTTGGTCTGGGGGTTTGATTCTCGCTTAGGGTGCGAGAGGTCCCGGGGTCAAAGCCCGGACGAGCCC [GAA A14G A20T T53G T59G] | 6.94 | 0.62
6 | GGCTCGTTGGTCTAGGGGTGTGATTCTCGCTTAGGGTGCGAGAGGTCCCGGGTTCAACGCCCGGACGAGCCC [GAA A20G A58C T59G] | 2.23 | 0.25
7 | GGCTCGTGGGTCTAGGGGATTGATTCTCGCTTAGGGTGCGAGAGGTCCCGGGTTCAGATCCCGGACGAGCCC [GAG T8G T19A A20T] | 7.03 | 0.62
8 | GGCTCGTTGGTCTGGCGGTATGATTCTCGCTTAGGGTGCGAGAGGTCCCGGGTTCCAATCCCGGACGAGCCC [CCA A14G] | 5.18 | 0.53
9 | GGCTCGTTGGTCTAGGCGTATGATTCTCGCTTAGGGTGCGAGAGGTCCCGGGTTTCAATCCCGGACGAGCCC [GCA G17C C55T] | 2.93 | 0.25
10 | GGCTCGTTGGTCTAGGGGTATGATTCTCGCTTAGGGTGCGAGAGGTCCCGGGTATAAATCCCGGACGAGCCC [GAA T54A C55T] | -0.253 | 0.54
11 | GGCTCGTTGGTCTAGGGGTATGATTCTCGCTTAGGGTGCGAGAGGTCCCGGGTTTGAATCCCGGACGAGCCC [GGA C55T] | 0.54 | 0.9
12 | GGCTCGTTGGTCTCGGGGTATGATTCTCGCTTAGGGTGCGAGAGGTCCCGGGTTCCAATCCCGGACGAGCCC [GCA A14C] | 2.97 | 0.4
13 | GGCTCGTTGGTCTTGGGGTATGATTCTCGCTTAGGGTGCGAGAGGTCCCGGGTTCGAAGCCCGGACGAGCCC [GGA A14T T59G] | 1.42 | 0.25
14 | GGCTCGTTGGTCTTGGGATATGATTCTCGCTTAGGGTGCGAGAGGTCCCGGGTTCTAATCCCGGACGAGCCC [GTA A14T G18A] | 3.36 | 0.33
15 | GGCTCGTTGGTCTAGGTGTATGATTCTCGCTTAGGGTGCGAGAGGTCCCGGGTTCAGTTCCCGGACGAGCCC [GAG G17T A58T] | 3.23 | 0.13
16 | GGCTCGTTGGTCTAGCGGTATGATTCTCGCTTAGGGTGCGAGAGGTCCCGGGTTGTAATCCCGGACGAGCCC [CTA C55G] | 3.26 | 0.4
17 | GGCTCGTTGGTCTAAGGGTATGATTCTCGCTTAGGGTGCGAGAGGTCCCGGGTACTAATCCCGGACGAGCCC [GTA G15A T54A] | 5.93 | 0.5
18 | GGCTCGTTGGTCTAGGGGGATGATTCTCGCTTAGGGTGCGAGAGGTCCCGGGTTCCAACCCCGGACGAGCCC [GCA T19G T59C] | 3.23 | 0.25
19 | GGCTCGTTGGTCTAGGGTTATGATTCTCGCTTAGGGTGCGAGAGGTCCCGGGTTCAAAACCCGGACGAGCCC [GAA G18T T59A] | 0.454 | 0.67

Full records from above:
GGCTCGTTGGTCTAGGTGTATGATTCTCGCTTAGGGTGCGAGAGGTCCCGGGTTCAGTTCCCGGACGAGCCC [GAG G17T A58T] in the list: tRNA Pol-III promoter activity (log2) [1]: 3.23; tRNA 3' processing efficiency [2]: 0.13
GGCTCGTTGGTCTAGCGGTATGATTCTCGCTTAGGGTGCGAGAGGTCCCGGGTTGTAATCCCGGACGAGCCC [CTA C55G] in the list: tRNA Pol-III promoter activity (log2) [1]: 3.26; tRNA 3' processing efficiency [2]: 0.4
